Source: publication PMC3712487

The chains behind the UniProt entries cited, without tags or fusion partners. Where a name states a change or a piece, a line headed by the entry shows the natural chain unless it says otherwise.
UniProt P46527: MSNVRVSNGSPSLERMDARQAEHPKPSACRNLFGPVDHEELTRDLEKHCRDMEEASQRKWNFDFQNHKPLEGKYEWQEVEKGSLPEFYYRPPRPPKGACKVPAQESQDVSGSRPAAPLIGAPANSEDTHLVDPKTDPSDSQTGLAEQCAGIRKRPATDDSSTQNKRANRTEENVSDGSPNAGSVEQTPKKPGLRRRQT
UniProt P28072: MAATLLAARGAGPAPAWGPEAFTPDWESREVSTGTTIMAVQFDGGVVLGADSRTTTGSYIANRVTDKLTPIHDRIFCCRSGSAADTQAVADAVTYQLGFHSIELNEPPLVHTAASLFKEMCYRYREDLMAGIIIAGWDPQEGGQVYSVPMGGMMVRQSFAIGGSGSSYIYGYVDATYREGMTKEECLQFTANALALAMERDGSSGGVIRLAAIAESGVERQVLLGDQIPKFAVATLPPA

Target: p27^Kip1–GST (UniProt P46527)
Experiment: pull-down; p27^Kip1–GST held on glutathione resin, incubated with purified β1–His6 (wild type or mutant) for 4 h at 4°C; blots with anti-β1/His6 antibodies; both purified

binding	Substance
binds	β1–His6 (full-length β1, wild type) (from UniProt P28072) (enzyme)
binds	β1–His6 S158A (from UniProt P28072) (enzyme)

No constants are given. Whether binding was seen depends on the method and setting. Binding can be weak; no strength is given.
